Numbering of substitutions follows the chain as printed. Names may count otherwise. Results are given in words; binding and its absence hold for the method and conditions named. Binding can be weak; no strength is given.
Experiments:
[1] = target: p31^comet–Mad2–Cdc20N (human); assay: pull-down; Mad2-binding assay: as the dissociation assay but with 1 mM ATPγS in place of ATP; MBP1 or Cdc20N beads loaded with His6-Mad2, then TRIP13 (500 nM) and ΔN35-p31comet (1 µM); Reaction Buffer, room temperature; SDS-PAGE and Coomassie; both purified
[2] = target: p31^comet–Mad2–MBP1 (human); assay: as above
[3] = target: p31^comet–Mad2–MBP1 (human); assay: pull-down; Mad2 dissociation assay: MBP1 or Cdc20N coupled to SulfoLink resin, loaded with His6-Mad2 (0.5 mg/ml), washed, then TRIP13 and ΔN35-p31comet with 1 mM ATP for 30-60 min; Reaction Buffer (25 mM Tris pH 7.5, 200 mM NaCl, 10 mM MgCl2, 1 mM DTT, 5% glycerol, 0.05% Tween), room temperature; bound proteins by SDS-PAGE and Coomassie; both purified

B1: TRIP13 wild type (enzyme, human, UniProt Q15645 1-432, looked up)
chain: MDEAVGDLKQALPCVAESPTVHVEVHQRGSSTAKKEDINLSVRKLLNRHNIVFGDYTWTEFDEPFLTRNVQSVSIIDTELKVKDSQPIDLSACTVALHIFQLNEDGPSSENLEEETENIIAANHWVLPAAEFHGLWDSLVYDVEVKSHLLDYVMTTLLFSDKNVNSNLITWNRVVLLHGPPGTGKTSLCKALAQKLTIRLSSRYRYGQLIEINSHSLFSKWFSESGKLVTKMFQKIQDLIDDKDALVFVLIDEVESLTAARNACRAGTEPSDAIRVVNAVLTQIDQIKRHSNVVILTTSNITEKIDVAFVDRADIKQYIGPPSAAAIFKIYLSCLEELMKCQIIYPRQQLLTLRELEMIGFIENNVSKLSLLLNDISRKSEGLSGRVLRKLPFLAHALYVQAPTVTIEGFLQALSLAVDKQFEERKKLAAYI
notes: TRIP13, human; its own AUC and gel filtration show no discrete oligomer; also called TRIP13 WT; source: E. coli BL21 (DE3), purified (Ni-NTA, TEV, Resource Q, Superdex 200); not shown: His6, N-terminal, cleaved
binding [1]: binds
binding [2]: binds

B2: TRIP13 G320A (enzyme, human, UniProt Q15645 1-432, looked up)
chain: B1 chain with G320A
notes: TRIP13, human; source: E. coli BL21 (DE3), purified (Ni-NTA, TEV, Resource Q, Superdex 200); not shown: His6, N-terminal, cleaved
binding [1]: binds
binding [2]: binds

B3: TRIP13 N278A (enzyme, UniProt Q15645 1-432)
chain: B1 chain with N278A
binding [2]: binds

B4: TRIP13 E253A (enzyme, UniProt Q15645 1-432)
chain: B1 chain with E253A
binding [3]: binds

B5: TRIP13 W221A (enzyme, UniProt Q15645 1-432)
chain: B1 chain with W221A
binding [1]: no binding
binding [2]: no binding (tested: 500 nM)
